Source: article PMC11562385 (RSC Chemical Biology, 2024)
For some of these results: End groups of sequences in plain letters are not given here.

Assays:
[1] = general procedure: Fmoc solid-phase peptide synthesis; Wang resin; HBTU/HOBT/DIPEA; HATU/DIPEA for warhead; details: whole synthesis
[2] = peptide made by a vendor (peptide synthesis; Wang resin; HBTU/HOBT/DIPEA; HATU/DIPEA for warhead); details: whole synthesis, scale of the general procedure 0.13 mmol (300 mg resin), 0.09 mmol (200 mg) for 1c; for final HPLC purity: 220 nm; for purity (crude or final not stated): analytical RP-HPLC, UV 220 nm
[3] = 220 nm, scale of the general procedure 0.13 mmol (300 mg resin), 0.09 mmol (200 mg) for 1c
[4] = analytical RP-HPLC, UV 220 nm, scale 0.13 mmol
[5] = scale of the general procedure 0.13 mmol (300 mg resin), 0.09 mmol (200 mg) for 1c

Substance: RWVW-RDYRGDMGFD-WVWE
- final HPLC purity [1, 3]: 99%
- isolated yield ([1]; scale 0.13 mmol): 35%

Substance: RWVKR-RDYRFDMGFD-YWVWE
- final HPLC purity [2]: 99%
- purity (crude or final not stated) [2]: 99%

Substance: RWVA-RAYGNYWYID-VWHWE
- final HPLC purity [1, 3]: 99%
- purity (crude or final not stated) [1, 4]: 99%
- isolated yield [1, 5]: 23%

Substance: RWVA-RRDYRGDMGFD-YWHWE
- final HPLC purity [1, 3]: 95%
- purity (crude or final not stated) [1, 4]: 95%
- isolated yield [1, 5]: 65%

Substance: RWVVR-RDYRGDMGFD-YWVWE
- final HPLC purity [2]: 99%
- purity (crude or final not stated) [2]: 99%

Substance: RWVAR-RDYRFDMGFD-YWHWE
- final HPLC purity [1, 3]: 97%
- purity (crude or final not stated) [1, 4]: 99%

Substance: cRWCAR-RDYRFDMGFD-YWCWE
- final HPLC purity ([1]; 220 nm, scale of the general procedure 0.13 mmol (300 mg resin), 0.09 mmol (200 mg) for 1c, one disulfide bridge, sequence written open): 99%
- purity (crude or final not stated) ([1]; analytical RP-HPLC, UV 220 nm, scale 0.13 mmol, one disulfide bridge, sequence written open): 99%
- isolated yield ([1]; scale of the general procedure 0.13 mmol (300 mg resin), 0.09 mmol (200 mg) for 1c, one disulfide bridge, sequence written open): 16%

Substance: RWCAR-RDYRFDMGFD-YWGWE
- final HPLC purity [1, 3]: 90%
- isolated yield ([1]; scale 0.13 mmol): 33%

Substance: RWVA-RAYGNYGYID-VWHWE
- final HPLC purity [1, 3]: 98%
- purity (crude or final not stated) [1, 4]: 98%
- isolated yield [1, 5]: 19%

Substance: RWVW-GGGGKKGGGG-WVWE
- final HPLC purity [1, 3]: 98%
- final HPLC purity ([1]; analytical RP-HPLC, UV 220 nm, scale of the general procedure 0.13 mmol (300 mg resin), 0.09 mmol (200 mg) for 1c): 88%
- isolated yield ([1]; scale 0.13 mmol): 70%

Substance: RGVARRDYRGDPGFDYWHWE
- final HPLC purity [1, 3]: 98%
- isolated yield ([1]; scale 0.13 mmol): 33%

Substance: RWVA-REGMNTDGYFN-YWVWE
- purity (crude or final not stated) [1, 4]: 95%
- final HPLC purity [2]: 95%

Substance: RWVW-RDYRFDMGFD-WVWE
- final HPLC purity [1, 3]: 93%
- isolated yield ([1]; scale 0.09 mmol): 30%

Substance: RWVAR-RDYRFD[Dap(ACA)]GFD-YWVWE
- final HPLC purity [1, 3]: 99%
- purity (crude or final not stated) [1, 4]: 99%
- isolated yield [1, 5]: 4%

Substance: RWVA-RRDYRGDMGFD-YWVWE
- final HPLC purity [1, 3]: 99%
- isolated yield ([1]; scale 0.13 mmol): 34%

Substance: RWVAR-RDYRGDMGFN-YWVWE
- final HPLC purity [1, 3]: 99%
- purity (crude or final not stated) [1, 4]: 99%
- isolated yield [1, 5]: 32%

Substance: RWVA-REGMNTDGYFD-YWHWE
- final HPLC purity [1, 3]: 98%
- purity (crude or final not stated) [1, 4]: 98%
- isolated yield [1, 5]: 33%

Substance: RWVAR-RDYRFD[Dab(ACA)]GFD-YWVWE
- final HPLC purity [1, 3]: 99%
- purity (crude or final not stated) [1, 4]: 99%
- isolated yield [1, 5]: 9%

Substance: RWVAR-RDYRFD[Dab(MAA)]GFD-YWVWE
- final HPLC purity [1, 3]: 99%
- purity (crude or final not stated) [1, 4]: 99%
- isolated yield [1, 5]: 14%

Substance: RWVW-RRDYRFDMGFD-YWVWE
- final HPLC purity [1, 3]: 90%
- isolated yield ([1]; scale 0.13 mmol): 53%

Substance: RWVW-SPDSSGVAY-WVWE
- final HPLC purity [1, 3]: 99%
- purity (crude or final not stated) [1, 4]: 99%
- isolated yield [1, 5]: 43%

Substance: RWVAR-RDYRFD[Dab(DMA)]GFD-YWVWE
- final HPLC purity [1, 3]: 99%
- purity (crude or final not stated) [1, 4]: 99%
- isolated yield [1, 5]: 20%

Substance: RWVAR-RDYRFDMGFN-YWVWE
- final HPLC purity [2]: 96%
- purity (crude or final not stated) [2]: 96%

Substance: RWVA-REGMNTDWYFD-YWHWE
- final HPLC purity [1, 3]: 94%
- purity (crude or final not stated) [1, 4]: 94%
- isolated yield [1, 5]: 10%

Substance: RWVA-RRDYRFDMGFD-YWVWE
- final HPLC purity [1, 3]: 99%
- isolated yield ([1]; scale 0.13 mmol): 36%

Substance: RWVA-REGMNTDG[Dap(ACA)]FN-YWVWE
- final HPLC purity [1, 3]: 99%
- purity (crude or final not stated) [1, 4]: 99%
- isolated yield [1, 5]: 19%

Substance: RWVA-REGMNTDG[Dab(ACA)]FN-YWVWE
- final HPLC purity [1, 3]: 99%
- purity (crude or final not stated) [1, 4]: 99%
- isolated yield [1, 5]: 22%

Substance: RWVKR-RDYRGDM..GFD-YWVWE
- final HPLC purity [1, 3]: 97%
- purity (crude or final not stated) [1, 4]: 97%
- isolated yield [1, 5]: 31%

Substance: RWVW-RDLDIATTRDY-WVWE
- final HPLC purity [1, 3]: 93%
- purity (crude or final not stated) [1, 4]: 93%
- isolated yield [1, 5]: 28%

Substance: RWVA-RGGGGKKGGFD-YWVWE
- final HPLC purity [1, 3]: 99%
- isolated yield ([1]; scale 0.13 mmol): 51%

Substance: RWVVR-RDYRFDMGFD-YWVWE
- final HPLC purity [2]: 97%
- purity (crude or final not stated) [2]: 97%
